Measured values from article PMC7261414, “A complex comprising C15ORF41 and Codanin-1: the products of two genes mutated in congenital dyserythropoietic anaemia type I (CDA-I)” (Biochemical Journal, 2020).

Tests used:
Assay in all cases: affinity purification with mass spectrometry; GFP-Trap affinity beads, ~40 mg of lysate of HEK293 cells stably expressing the GFP-tagged proteins; SDS-PAGE, colloidal Coomassie, gel slices, LC-MS/MS
[1] = biological target: T1, GFP-C15ORF41 (wild-type C15ORF41 tagged with GFP at the N-terminus) (human) (UniProt Q9Y2V0)
T1 sequence: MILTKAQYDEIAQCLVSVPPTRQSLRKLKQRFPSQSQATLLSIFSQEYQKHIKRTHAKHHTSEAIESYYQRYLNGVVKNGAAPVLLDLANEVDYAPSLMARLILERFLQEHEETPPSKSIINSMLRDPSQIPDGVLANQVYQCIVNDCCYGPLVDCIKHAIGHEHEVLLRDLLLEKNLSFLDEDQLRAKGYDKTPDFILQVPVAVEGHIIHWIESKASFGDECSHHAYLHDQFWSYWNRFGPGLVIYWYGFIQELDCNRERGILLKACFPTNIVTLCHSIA

[2] = biological target: T2, GFP-C15ORF41 D196A (N-terminally GFP-tagged C15ORF41 with Asp196 mutated to alanine) (human) (UniProt Q9Y2V0)
T2 sequence: T1 sequence with D196A

[3] = biological target: T3, C15ORF41-GFP (wild-type C15ORF41 tagged with GFP at the C-terminus) (human) (UniProt Q9Y2V0)
T3 sequence: T1 sequence

Measured: binding

B1: Codanin-1, endogenous in HEK293 cells (protein, UniProt Q8IWY9 1-1227)
chain: MAAVLESLLREEVSVAAVVRWIARSTQGSEDNAGEAAALSSLRALRKEFVPFLLNFLREQSSRVLPQGPPTPAKTPGASAALPGRPGGPPRGSRGARSQLFPPTEAQSTAAEAPLARRGGRRRGPGPARERGGRGLEEGVSGESLPGAGGRRLRGSGSPSRPSLTLSDPPNLSNLEEFPPVGSVPPGPTGTKPSRRINPTPVSEERSLSKPKTCFTSPPISCVPSSQPSALDTSPWGLGLPPGCRSLQEEREMLRKERSKQLQQSPTPTCPTPELGSPLPSRTGSLTDEPADPARVSSRQRLELVALVYSSCIAENLVPNLFLELFFVFQLLTARRMVTAKDSDPELSPAVLDSLESPLFQSIHDCVFFAVQVLECHFQVLSNLDKGTLKLLAENERLLCFSPALQGRLRAAYEGSVAKVSLVMPPSTQAVSFQPETDNRANFSSDRAFHTFKKQRDVFYEVLREWEDHHEEPGWDFEKGLGSRIRAMMGQLSAACSHSHFVRLFQKQLLQMCQSPGGAGGTVLGEAPDVLSMLGADKLGRLWRLQERLMAPQSSGGPCPPPTFPGCQGFFRDFILSASSFQFNQHLMDSLSLKIQELNGLALPQHEPNDEDGESDVDWQGERKQFAVVLLSLRLLAKFLGFVAFLPYRGPEPPPTGELQDSILALRSQVPPVLDVRTLLQRGLQARRAVLTVPWLVEFLSFADHVVPLLEYYRDIFTLLLRLHRSLVLSQESEGKMCFLNKLLLLAVLGWLFQIPTVPEDLFFLEEGPSYAFEVDTVAPEHGLDNAPVVDQQLLYTCCPYIGELRKLLASWVSGSSGRSGGFMRKITPTTTTSLGAQPSQTSQGLQAQLAQAFFHNQPPSLRRTVEFVAERIGSNCVKHIKATLVADLVRQAESLLQEQLVTQGEEGGDPAQLLEILCSQLCPHGAQALALGREFCQRKSPGAVRALLPEETPAAVLSSAENIAVGLATEKACAWLSANITALIRREVKAAVSRTLRAQGPEPAARGERRGCSRACEHHAPLPSHLISEIKDVLSLAVGPRDPDEGVSPEHLEQLLGQLGQTLRCRQFLCPPAEQHLAKCSVELASLLVADQIPILGPPAQYRLERGQARRLLHMLLSLWKEDFQGPVPLQLLLSPRNVGLLADTRPREWDLLLFLLRELVEKGLMGRMEIEACLGSLHQAQWPGDFAEELATLSNLFLAEPHLPEPQLRACELVQPNRGTVLAQS
binds: all assays above

Changes are numbered by the printed parent chain. Results are given in words; binding and its absence hold for the method and conditions named. In cells and extracts the contact can be indirect. Here binding means that the protein was enriched with, or labelled near, the bait; the list need not be complete. Tags and fused reporters may be left off the sequences shown.
